From paper PMC7819943, “Rice protein-binding microarrays: a tool to detect cis-acting elements near promoter regions in rice”
Some of the results follow.

Amino acid sequences for entries named in this document (tags omitted).
UniProt Q0JBA9, entry or part of it: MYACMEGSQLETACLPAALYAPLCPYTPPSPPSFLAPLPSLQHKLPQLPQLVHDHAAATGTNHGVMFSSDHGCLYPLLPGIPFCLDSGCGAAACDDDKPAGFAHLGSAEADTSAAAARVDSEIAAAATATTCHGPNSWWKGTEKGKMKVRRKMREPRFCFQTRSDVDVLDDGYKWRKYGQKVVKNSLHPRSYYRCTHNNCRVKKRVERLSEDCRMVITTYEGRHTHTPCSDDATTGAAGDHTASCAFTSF

Target: OsWRKY34 (Oryza sativa, UniProt Q0JBA9 1-250)
Assay: protein-binding microarray (RPBM); PBS, 2% BSA, 51.3 ng/ul salmon testes DNA, 50 uM zinc acetate, 200 nM TF, 25 C, 1 h; high values mean tight binding
Details: protein: recombinant; tags: N-terminal polyhistidine and DsRed monomer fusion (pET32a); label: CyDye5-dUTP incorporated in the synthesized complementary strand; 3' TTTTT single-stranded linker to array surface; dsDNA, one strand shown
Outline: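 Per-feature fluorescence intensity (arbitrary units), read on an Axon 4000B scanner, is the binding signal. Transcription factors carrying an N-terminal polyhistidine tag and DsRed fusion were expressed in E. coli BL21-CodonPlus and purified on Ni–NTA. A custom Agilent array, made double-stranded by primer extension with Cy5-dUTP and blocked with 2% BSA, was incubated with 200 nM protein in PBS, 2% BSA, salmon testes DNA and 50 µM zinc acetate at 25 °C for 1 h and then washed.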

Sequence | binding signal
GTCATCCGGGTCCAATTGCCATCACCACTCTCCAACATTTCGGAGTCACCTAGTGCAG | 12500 fluorescence intensity (a.u.)
TCTGTCAAAGTTGTTTCACCCACCATGCAATTTACCCATTCGGAGTCACCTAGTGCAG | 9370 fluorescence intensity (a.u.)
TTGTTCTTCATTTACACAGAAAGATATATGTTGCTTTCTTCGGAGTCACCTAGTGCAG | 8260 fluorescence intensity (a.u.)
GCCCATGCCTACCTGCTGCTGTGCCTTCTTCCTATTGAATCGGAGTCACCTAGTGCAG | 9950 fluorescence intensity (a.u.)
TACCCACACCGATCTGCCGCTGCCCAGTTCCACCTACTTTCGGAGTCACCTAGTGCAG | 16800 fluorescence intensity (a.u.)
ATTGGTAGTATGTCCATCTTCTTCTTTTTTTGCCGGTTAACGGAGTCACCTAGTGCAG | 8960 fluorescence intensity (a.u.)
CCCTTCTCCGGCCTCTCCGTGCTTTGCTGTTCTTTGCTTTCGGAGTCACCTAGTGCAG | 9220 fluorescence intensity (a.u.)
CTCCGGATCCGCACACCTCCTGTTAATCCGCCGATTCTTCCGGAGTCACCTAGTGCAG | 10800 fluorescence intensity (a.u.)
TAATGATGCACAATATATCTTTCAGATTCTACTGCTGTACCGGAGTCACCTAGTGCAG | 8380 fluorescence intensity (a.u.)
CACCAACCCTATGGAGCAGTTCGTCGACGCCCTCATCCAGCGGAGTCACCTAGTGCAG | 8700 fluorescence intensity (a.u.)
TCTGGTTCCCAGGGGCGTGTGATGTTGTAGTAGTATTTCTCGGAGTCACCTAGTGCAG | 9380 fluorescence intensity (a.u.)
TGCTTCCGGCGGCATTACCTCCTCGTCCTCGTCCGACTCCCGGAGTCACCTAGTGCAG | 10400 fluorescence intensity (a.u.)
CCATTCTTAAGGTACCTCACTTTTTTTTTTCTGTTGGCTCCGGAGTCACCTAGTGCAG | 8400 fluorescence intensity (a.u.)
ATCATAGTATTCCTTTAATTCCTGGTTCTAAACCTGTTAACGGAGTCACCTAGTGCAG | 8910 fluorescence intensity (a.u.)
GGGTTGAGGGTGGGCCAGTGGAGGACTGGTGGAAGATAGCCGGAGTCACCTAGTGCAG | 9120 fluorescence intensity (a.u.)
TGTTGACTTTTTCCGGCCCGGATTGACGCCGCAAGCCGAACGGAGTCACCTAGTGCAG | 10300 fluorescence intensity (a.u.)
TGCTTAATTTCCATTGATTCGAACTGTAGTTGCACGCGCGCGGAGTCACCTAGTGCAG | 8810 fluorescence intensity (a.u.)
AGGTCGACGTGTATATGTTCGTCTTTCATATCTCTGCTCTCGGAGTCACCTAGTGCAG | 9640 fluorescence intensity (a.u.)
CGCACGCGTGAATCACATCGCCCCGTTTCCATTTTCCAACCGGAGTCACCTAGTGCAG | 8130 fluorescence intensity (a.u.)
TCGAATCCTCCGCCCCGTCGTCTCCAAAACCCAACACCCACGGAGTCACCTAGTGCAG | 8650 fluorescence intensity (a.u.)
ATGGTAGTGATCACCCGGCTCCACAGCTCCGGCCTTTTTACGGAGTCACCTAGTGCAG | 9390 fluorescence intensity (a.u.)
GAAAACTCATGGGAGTAGCTATATTTATGGTGCCATATTTCGGAGTCACCTAGTGCAG | 8290 fluorescence intensity (a.u.)
AGTCATTCTAGCATTTTTCACATTCATATTAATGTTAATGCGGAGTCACCTAGTGCAG | 8630 fluorescence intensity (a.u.)
CCGTTGTCTTGGAATCATCTCCTCGAGATGTCAAACTCACCGGAGTCACCTAGTGCAG | 10900 fluorescence intensity (a.u.)
CTTACCGTGTTATAGTAGCCACCCAGTCAGCCGCGCTAACCGGAGTCACCTAGTGCAG | 8700 fluorescence intensity (a.u.)
TCTCTCTCTTTCTCGTCTCCTCCTATCCGCGTCCATCTCTCGGAGTCACCTAGTGCAG | 9770 fluorescence intensity (a.u.)
GCGGAGGTGGTGAGCGGGGCGGTGGAGTGCTTCAAGCAGTCGGAGTCACCTAGTGCAG | 8770 fluorescence intensity (a.u.)

Sequence | binding signal
ATCCTTGCCCGCCACGGTACACGAGTCCTACTATCCATACCGGAGTCACCTAGTGCAG | 14700 fluorescence intensity (a.u.)
CAAGTGAGTGGCCATATCTTCCGACCTTCTACTTATTTCACGGAGTCACCTAGTGCAG | 8470 fluorescence intensity (a.u.)
GCGCCTACCGTTGACTCTCCCCAGCCCGATCCGAAACCACCGGAGTCACCTAGTGCAG | 10200 fluorescence intensity (a.u.)
ATATGGTTAAATTTGTGTAGGCTAGCTATATTTTTTTTCTCGGAGTCACCTAGTGCAG | 10400 fluorescence intensity (a.u.)
ACATCAACGCCAACATCTTCCCCGTCTCTCTCGCTACCCACGGAGTCACCTAGTGCAG | 9350 fluorescence intensity (a.u.)
TTTGCACTGTTTTATCCCTCGTCTTTTATTCAAAAAATTTCGGAGTCACCTAGTGCAG | 13500 fluorescence intensity (a.u.)
GAACTGATCCATATATTTTTTTGACCATTCTAGCAAGTTCCGGAGTCACCTAGTGCAG | 8140 fluorescence intensity (a.u.)
TTGATCTATCCTTCAATTCACACAATTAGCTTTGTTTTATCGGAGTCACCTAGTGCAG | 8580 fluorescence intensity (a.u.)
GAGTTCATCCTTATTGCTTTCTGTCTTGACATTTATCTTGCGGAGTCACCTAGTGCAG | 10100 ± 628 fluorescence intensity (a.u.)
GATTTTATATTAGGGTTCTTGTACAGTTTAAGCACCGACACGGAGTCACCTAGTGCAG | 8490 fluorescence intensity (a.u.)
CCCGAGCTAATTCGCGTTAGCTTCCACCCTGTAACCTTTCCGGAGTCACCTAGTGCAG | 10000 fluorescence intensity (a.u.)
ATATGTTGTTTGACTTTTTTCATAGTCAGAAGTCTATTGGCGGAGTCACCTAGTGCAG | 19000 fluorescence intensity (a.u.)
GTGGCTGGTTTGACTAGGTCTCCATCCCACGTGGCATTGACGGAGTCACCTAGTGCAG | 8420 fluorescence intensity (a.u.)
CATTTCTGTCGTGCCATCATCTGCATCCTGCACGCCGCATCGGAGTCACCTAGTGCAG | 14400 fluorescence intensity (a.u.)
GATCTCGCGCATTGCTGTAGGAATTTATAGATCTATATATCGGAGTCACCTAGTGCAG | 8140 fluorescence intensity (a.u.)
CTCAGGTTGGTATCTCTTTCATTATGCCCCTTTCACATTTCGGAGTCACCTAGTGCAG | 8950 fluorescence intensity (a.u.)
AAATGTAACGCTAATGACCACTTCTTATTCCATCATTTAACGGAGTCACCTAGTGCAG | 9100 fluorescence intensity (a.u.)
TTTTTTTATCTTGTTGTGTGTGCTCCAACTAGCCATTCTTCGGAGTCACCTAGTGCAG | 9090 fluorescence intensity (a.u.)
AGTCGAGTCGTGTCGTGTCCCCGGATCGCACTTGCCCCTGCGGAGTCACCTAGTGCAG | 8380 fluorescence intensity (a.u.)
GAGATGCGGAGGGAGGGGAATGTTGGTGTGGCGGTGGCGACGGAGTCACCTAGTGCAG | 14000 fluorescence intensity (a.u.)
ACCAGGTTAATATTTTCACGCAGGAGTCAGGTCAATTGAACGGAGTCACCTAGTGCAG | 9600 fluorescence intensity (a.u.)
TACTTAATTAATCATGCGCTAATGAACCGTTCCGTTTTTCCGGAGTCACCTAGTGCAG | 8570 fluorescence intensity (a.u.)
CAATAAGTTACATATCCTAGGCTGTGACGAGTTGGATGAACGGAGTCACCTAGTGCAG | 9350 fluorescence intensity (a.u.)
ACCAATAGCTAGCAATACTTGCCATCATATATACCTGGGCCGGAGTCACCTAGTGCAG | 8020 fluorescence intensity (a.u.)
GCTCGTCGCCGTCTTGCTCGCCACCGCTCGCCGCCGCCGCCGGAGTCACCTAGTGCAG | 10400 fluorescence intensity (a.u.)
AGTAATTTATGTTTGACTATTTTTTTAAAAATTTTTTATGCGGAGTCACCTAGTGCAG | 10800 fluorescence intensity (a.u.)
TCACTCTTATTTATTACCAAGCTTGCTATTATCTTAAAATCGGAGTCACCTAGTGCAG | 8750 fluorescence intensity (a.u.)

Look-ups from above.
CTCAGGTTGGTATCTCTTTCATTATGCCCCTTTCACATTTCGGAGTCACCTAGTGCAG – binding signal: 8950 fluorescence intensity (a.u.)
TACTTAATTAATCATGCGCTAATGAACCGTTCCGTTTTTCCGGAGTCACCTAGTGCAG – binding signal: 8570 fluorescence intensity (a.u.)
AGTAATTTATGTTTGACTATTTTTTTAAAAATTTTTTATGCGGAGTCACCTAGTGCAG – binding signal: 10800 fluorescence intensity (a.u.)
